Data from ChEMBL document CHEMBL3436046, “Predictive model for L-type channel inhibition: multichannel block in QT prolongation risk assessment” (J Appl Toxicol, 2012).
One block for each compound: values may come before it.

Sequences of proteins named here, by UniProt entry; tags and fusion partners are left off.
UniProt P22002, whole entry: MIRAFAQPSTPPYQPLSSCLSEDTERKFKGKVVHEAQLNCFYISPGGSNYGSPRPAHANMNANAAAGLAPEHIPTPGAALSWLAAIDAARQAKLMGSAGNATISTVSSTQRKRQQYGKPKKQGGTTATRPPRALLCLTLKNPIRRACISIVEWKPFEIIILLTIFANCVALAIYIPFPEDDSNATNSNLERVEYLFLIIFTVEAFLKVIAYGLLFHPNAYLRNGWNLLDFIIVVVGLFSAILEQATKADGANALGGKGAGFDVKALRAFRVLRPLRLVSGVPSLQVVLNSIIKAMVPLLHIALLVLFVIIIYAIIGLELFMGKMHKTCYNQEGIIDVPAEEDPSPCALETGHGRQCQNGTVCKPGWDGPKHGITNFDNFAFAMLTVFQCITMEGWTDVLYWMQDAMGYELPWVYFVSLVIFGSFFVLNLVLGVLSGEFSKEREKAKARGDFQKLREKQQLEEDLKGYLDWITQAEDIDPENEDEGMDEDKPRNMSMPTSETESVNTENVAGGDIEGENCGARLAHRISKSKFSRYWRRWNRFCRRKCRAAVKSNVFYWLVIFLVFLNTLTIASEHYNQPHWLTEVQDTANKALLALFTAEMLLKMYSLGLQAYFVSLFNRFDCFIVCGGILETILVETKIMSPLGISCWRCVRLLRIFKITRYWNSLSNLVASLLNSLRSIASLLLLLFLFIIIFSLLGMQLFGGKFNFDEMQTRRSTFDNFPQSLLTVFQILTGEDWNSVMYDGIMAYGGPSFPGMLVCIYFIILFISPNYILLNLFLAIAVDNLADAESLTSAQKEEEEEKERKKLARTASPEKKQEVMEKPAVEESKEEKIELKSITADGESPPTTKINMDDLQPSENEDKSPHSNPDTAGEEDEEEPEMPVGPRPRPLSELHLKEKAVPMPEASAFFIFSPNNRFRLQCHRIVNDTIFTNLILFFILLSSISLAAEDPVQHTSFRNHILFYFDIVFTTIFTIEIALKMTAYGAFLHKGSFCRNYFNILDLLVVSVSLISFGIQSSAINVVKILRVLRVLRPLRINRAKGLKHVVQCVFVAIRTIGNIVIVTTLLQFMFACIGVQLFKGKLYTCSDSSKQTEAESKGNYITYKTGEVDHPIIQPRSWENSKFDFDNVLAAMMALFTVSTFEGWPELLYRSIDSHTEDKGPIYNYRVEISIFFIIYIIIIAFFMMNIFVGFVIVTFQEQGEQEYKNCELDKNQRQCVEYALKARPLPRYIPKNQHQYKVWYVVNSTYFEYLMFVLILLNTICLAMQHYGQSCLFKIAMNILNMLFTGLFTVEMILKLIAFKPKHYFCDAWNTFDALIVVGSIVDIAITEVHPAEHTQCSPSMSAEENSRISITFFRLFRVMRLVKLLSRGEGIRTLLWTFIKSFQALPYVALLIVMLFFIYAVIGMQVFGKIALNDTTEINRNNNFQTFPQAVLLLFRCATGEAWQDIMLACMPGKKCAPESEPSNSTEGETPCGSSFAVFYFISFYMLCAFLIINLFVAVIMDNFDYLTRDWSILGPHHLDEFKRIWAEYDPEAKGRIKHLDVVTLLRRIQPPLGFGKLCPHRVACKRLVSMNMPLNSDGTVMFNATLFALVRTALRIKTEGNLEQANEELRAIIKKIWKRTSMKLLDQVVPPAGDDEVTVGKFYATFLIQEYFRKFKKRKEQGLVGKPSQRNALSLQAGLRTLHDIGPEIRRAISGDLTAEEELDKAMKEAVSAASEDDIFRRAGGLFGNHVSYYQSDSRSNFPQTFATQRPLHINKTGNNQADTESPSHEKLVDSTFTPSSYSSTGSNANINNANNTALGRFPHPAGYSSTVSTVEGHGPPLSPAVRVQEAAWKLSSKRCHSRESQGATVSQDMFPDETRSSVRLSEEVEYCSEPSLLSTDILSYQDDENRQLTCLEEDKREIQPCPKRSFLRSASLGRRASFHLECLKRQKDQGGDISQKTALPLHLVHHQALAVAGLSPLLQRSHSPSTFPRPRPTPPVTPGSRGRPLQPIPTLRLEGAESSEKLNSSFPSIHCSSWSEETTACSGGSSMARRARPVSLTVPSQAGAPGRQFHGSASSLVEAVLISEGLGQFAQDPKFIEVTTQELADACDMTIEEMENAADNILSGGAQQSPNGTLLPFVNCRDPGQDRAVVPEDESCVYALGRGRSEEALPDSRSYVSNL
UniProt Q13936, whole entry: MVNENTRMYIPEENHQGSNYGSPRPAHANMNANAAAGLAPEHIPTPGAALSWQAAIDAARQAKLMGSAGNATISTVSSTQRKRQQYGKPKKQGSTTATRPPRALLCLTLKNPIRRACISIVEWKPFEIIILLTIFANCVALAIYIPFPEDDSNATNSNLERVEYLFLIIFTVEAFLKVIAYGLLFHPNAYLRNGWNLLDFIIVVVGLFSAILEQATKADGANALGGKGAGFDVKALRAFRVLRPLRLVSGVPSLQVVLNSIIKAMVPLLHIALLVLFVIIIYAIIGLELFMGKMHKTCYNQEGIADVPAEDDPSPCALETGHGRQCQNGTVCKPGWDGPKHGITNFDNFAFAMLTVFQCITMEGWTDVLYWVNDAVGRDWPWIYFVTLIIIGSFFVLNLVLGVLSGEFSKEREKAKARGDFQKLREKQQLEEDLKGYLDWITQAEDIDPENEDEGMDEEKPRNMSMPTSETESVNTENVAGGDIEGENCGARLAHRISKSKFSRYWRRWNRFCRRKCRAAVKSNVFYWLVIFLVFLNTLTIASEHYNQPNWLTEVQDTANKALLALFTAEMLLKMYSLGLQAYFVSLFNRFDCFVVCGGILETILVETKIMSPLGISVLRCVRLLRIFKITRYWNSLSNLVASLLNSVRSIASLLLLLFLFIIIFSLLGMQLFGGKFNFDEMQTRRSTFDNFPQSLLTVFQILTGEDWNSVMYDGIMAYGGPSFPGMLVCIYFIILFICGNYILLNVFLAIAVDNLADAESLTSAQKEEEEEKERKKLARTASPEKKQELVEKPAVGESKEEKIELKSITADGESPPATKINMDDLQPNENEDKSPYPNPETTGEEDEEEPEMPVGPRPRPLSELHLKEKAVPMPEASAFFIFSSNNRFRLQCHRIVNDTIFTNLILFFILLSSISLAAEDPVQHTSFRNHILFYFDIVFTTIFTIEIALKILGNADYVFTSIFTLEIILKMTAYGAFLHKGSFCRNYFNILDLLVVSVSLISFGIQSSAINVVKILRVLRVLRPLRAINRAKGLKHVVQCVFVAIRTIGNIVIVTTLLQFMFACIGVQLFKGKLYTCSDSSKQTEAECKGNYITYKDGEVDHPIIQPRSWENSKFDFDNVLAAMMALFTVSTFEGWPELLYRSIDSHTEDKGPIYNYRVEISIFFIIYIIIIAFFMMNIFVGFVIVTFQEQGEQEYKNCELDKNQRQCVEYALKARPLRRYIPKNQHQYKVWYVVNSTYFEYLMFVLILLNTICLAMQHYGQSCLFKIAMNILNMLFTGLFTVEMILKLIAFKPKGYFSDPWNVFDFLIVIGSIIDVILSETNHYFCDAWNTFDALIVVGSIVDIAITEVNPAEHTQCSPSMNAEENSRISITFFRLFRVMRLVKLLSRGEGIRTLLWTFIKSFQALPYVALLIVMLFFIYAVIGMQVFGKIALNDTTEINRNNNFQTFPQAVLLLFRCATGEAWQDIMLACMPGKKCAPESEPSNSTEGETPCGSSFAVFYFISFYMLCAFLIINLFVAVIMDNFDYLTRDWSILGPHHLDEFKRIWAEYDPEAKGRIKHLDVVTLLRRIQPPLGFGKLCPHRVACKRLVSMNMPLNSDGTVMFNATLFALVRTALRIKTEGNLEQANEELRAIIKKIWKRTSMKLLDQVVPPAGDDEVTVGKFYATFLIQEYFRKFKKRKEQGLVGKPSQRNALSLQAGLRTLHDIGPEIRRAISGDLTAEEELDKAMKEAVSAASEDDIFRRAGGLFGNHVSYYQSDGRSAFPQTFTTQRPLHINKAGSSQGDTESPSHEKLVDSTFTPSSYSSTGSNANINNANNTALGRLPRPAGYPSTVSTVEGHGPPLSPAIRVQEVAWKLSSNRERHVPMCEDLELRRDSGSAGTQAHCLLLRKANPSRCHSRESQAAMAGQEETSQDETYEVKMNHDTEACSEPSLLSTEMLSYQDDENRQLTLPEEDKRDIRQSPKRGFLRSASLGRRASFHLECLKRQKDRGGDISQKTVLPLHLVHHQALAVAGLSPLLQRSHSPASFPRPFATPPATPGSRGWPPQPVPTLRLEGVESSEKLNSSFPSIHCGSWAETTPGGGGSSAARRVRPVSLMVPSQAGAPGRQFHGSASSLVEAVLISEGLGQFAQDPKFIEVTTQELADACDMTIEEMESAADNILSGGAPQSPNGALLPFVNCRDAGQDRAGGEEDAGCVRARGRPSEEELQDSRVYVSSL
UniProt O35505, whole entry: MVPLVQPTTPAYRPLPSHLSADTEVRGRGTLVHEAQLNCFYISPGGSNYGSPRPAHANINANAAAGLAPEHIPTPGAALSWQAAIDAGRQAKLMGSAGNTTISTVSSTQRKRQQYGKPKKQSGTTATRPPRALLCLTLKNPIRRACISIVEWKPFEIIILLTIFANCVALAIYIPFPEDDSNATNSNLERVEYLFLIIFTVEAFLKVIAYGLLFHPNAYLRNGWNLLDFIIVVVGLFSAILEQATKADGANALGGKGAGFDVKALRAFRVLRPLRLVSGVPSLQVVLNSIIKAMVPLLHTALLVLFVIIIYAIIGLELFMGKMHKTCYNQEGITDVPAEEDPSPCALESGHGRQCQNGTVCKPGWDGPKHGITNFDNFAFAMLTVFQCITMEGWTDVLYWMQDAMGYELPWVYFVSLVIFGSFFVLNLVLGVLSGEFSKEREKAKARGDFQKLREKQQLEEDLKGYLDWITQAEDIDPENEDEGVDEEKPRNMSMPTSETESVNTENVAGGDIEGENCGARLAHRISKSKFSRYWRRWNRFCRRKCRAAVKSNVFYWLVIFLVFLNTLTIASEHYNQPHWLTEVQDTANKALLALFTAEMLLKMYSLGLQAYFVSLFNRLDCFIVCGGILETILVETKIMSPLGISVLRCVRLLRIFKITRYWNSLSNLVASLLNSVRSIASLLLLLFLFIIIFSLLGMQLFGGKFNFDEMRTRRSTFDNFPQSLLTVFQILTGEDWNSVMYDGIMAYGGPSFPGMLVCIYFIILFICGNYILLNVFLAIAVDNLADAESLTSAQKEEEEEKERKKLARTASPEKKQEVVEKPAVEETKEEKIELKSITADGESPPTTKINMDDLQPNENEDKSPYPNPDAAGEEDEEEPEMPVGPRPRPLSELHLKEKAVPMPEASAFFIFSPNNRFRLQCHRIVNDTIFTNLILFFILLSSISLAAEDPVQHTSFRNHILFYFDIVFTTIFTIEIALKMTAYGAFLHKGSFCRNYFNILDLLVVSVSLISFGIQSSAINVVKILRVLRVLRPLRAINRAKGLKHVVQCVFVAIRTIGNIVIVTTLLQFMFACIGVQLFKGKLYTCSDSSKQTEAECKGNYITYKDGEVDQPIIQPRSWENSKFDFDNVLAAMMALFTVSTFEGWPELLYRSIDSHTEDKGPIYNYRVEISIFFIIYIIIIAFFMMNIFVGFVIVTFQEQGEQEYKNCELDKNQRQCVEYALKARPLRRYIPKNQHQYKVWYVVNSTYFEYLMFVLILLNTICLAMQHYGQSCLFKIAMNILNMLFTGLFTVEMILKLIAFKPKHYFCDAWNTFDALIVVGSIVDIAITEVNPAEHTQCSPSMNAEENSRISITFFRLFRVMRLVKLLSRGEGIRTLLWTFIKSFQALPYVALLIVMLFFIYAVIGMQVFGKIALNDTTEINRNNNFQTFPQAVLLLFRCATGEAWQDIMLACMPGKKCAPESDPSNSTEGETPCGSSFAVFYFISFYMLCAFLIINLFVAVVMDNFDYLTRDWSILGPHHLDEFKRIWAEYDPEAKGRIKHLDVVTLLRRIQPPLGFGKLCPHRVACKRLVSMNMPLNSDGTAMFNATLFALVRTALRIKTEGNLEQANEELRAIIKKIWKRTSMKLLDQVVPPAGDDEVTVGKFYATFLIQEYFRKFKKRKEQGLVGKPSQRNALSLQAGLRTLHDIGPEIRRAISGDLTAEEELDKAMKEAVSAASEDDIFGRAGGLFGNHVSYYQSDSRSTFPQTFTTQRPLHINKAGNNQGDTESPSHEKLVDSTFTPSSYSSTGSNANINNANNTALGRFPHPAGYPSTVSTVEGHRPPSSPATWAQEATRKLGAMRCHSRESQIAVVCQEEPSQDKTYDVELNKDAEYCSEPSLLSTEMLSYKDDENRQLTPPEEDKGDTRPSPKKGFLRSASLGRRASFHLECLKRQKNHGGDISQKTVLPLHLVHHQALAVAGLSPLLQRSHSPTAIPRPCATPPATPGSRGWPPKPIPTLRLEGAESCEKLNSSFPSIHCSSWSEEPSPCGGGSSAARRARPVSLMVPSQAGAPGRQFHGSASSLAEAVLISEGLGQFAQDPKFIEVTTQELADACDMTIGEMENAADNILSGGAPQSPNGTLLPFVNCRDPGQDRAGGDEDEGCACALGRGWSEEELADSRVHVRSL

What was measured:
[1] = target: Voltage-dependent L-type calcium channel subunit alpha-1C (Rattus norvegicus, UniProt P22002); assay: Inhibition of L-type calcium channel measured using whole-cell patch clamp in rat ventricular myocytes
[2] = target: Voltage-dependent L-type calcium channel subunit alpha-1C (Homo sapiens, UniProt Q13936); assay: Inhibition of L-type calcium channel measured using […] kidney cells heterologically expressing alpha-1C subunit; format: functional, cell-based, HEK293; set-up: ca sol conc 10 mM, temp room
[3] = target: Voltage-dependent L-type calcium channel subunit alpha-1C (Cavia porcellus, UniProt O35505); assay: Inhibition of L-type calcium channel measured using whole-cell patch clamp in guinea pig ventricular myocytes

- IC50 [1]: 31 µM
Structure (SMILES): CNCCCC12CCC(c3ccccc31)c1ccccc12 [MAPROTILINE]

- IC50 [2]: 21 µM
Structure (SMILES): CC(C)NCC(O)COc1cccc2ccccc12 (stereo not drawn) [PROPRANOLOL]

Structure (SMILES): Cc1nc2n(c(=O)c1CCN1CCC(c3noc4cc(F)ccc34)CC1)CCCC2 [RISPERIDONE]
- IC50 [3]: 116 µM
